Reference: PubChem BioAssay AID1259254 (NCATS, 2017)

- Purpose: 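Finding genes that stop cells copying their DNA twice in one cycle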 (primary screen)
- Cell system: human HCT116 colorectal cancer cells
- Reagents: single siRNA against human genes
- Duration: 3 days
- Measurement: 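Imaged Hoechst DNA stain sorts each cell into a cycle phase by DNA amount; per plate, G2 fraction set to 0% for non-targeting and 100% for GMNN siRNA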
- Reading the numbers: G2 robust z-score and G2 cells, % of GMNN control: higher = more G2 cells, more excess DNA replication
- Call rule: 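An siRNA counts as active if its G2 robust z-score lies at least 5 MADs above the screen median; here such calls match roughly 38% of GMNN control or more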
The deposit covers about 59,000 reagents; shown is a random part of them. About 1,550 of all reagents (2.6%) count as active. 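G2 share is only a proxy for re-replication; each gene was hit by three separate siRNAs, and active genes were retested.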 Entries without a mark were called inactive. The numbers tell different reagents against one gene apart. Not all columns of the deposit are shown. The record does not give: the amount of reagent.

For SLED1 #1, what does the deposit list?
G2 robust z-score: 0.368; G2 cells, % of GMNN control: 5.56

Which result is listed for SLED1 #2?
G2 robust z-score: 0.665; G2 cells, % of GMNN control: 7.65

What did the screen give for SLED1 #3?
G2 robust z-score: -0.76; G2 cells, % of GMNN control: -2.38

For FAM177A1 #1, how do the results read?
G2 robust z-score: 1.16; G2 cells, % of GMNN control: 11.2

With FAM177A1 #2, how do the results read?
G2 robust z-score: 4.32; G2 cells, % of GMNN control: 33.4

How did the screen score FAM177A1 #3?
G2 robust z-score: 0.211; G2 cells, % of GMNN control: 4.46

With MARF1 #1, what does the deposit list?
G2 robust z-score: -0.692; G2 cells, % of GMNN control: -1.9

What did the screen give for MARF1 #2?
G2 robust z-score: -0.241; G2 cells, % of GMNN control: 1.27

What is on record for MARF1 #3?
G2 robust z-score: 2.24; G2 cells, % of GMNN control: 18.7

For ST8SIA3 #1, what does the deposit list?
G2 robust z-score: -0.774; G2 cells, % of GMNN control: -2.48

How did the screen score ST8SIA3 #2?
G2 robust z-score: 0.682; G2 cells, % of GMNN control: 7.76

For ST8SIA3 #3, how do the results read?
G2 robust z-score: -0.894; G2 cells, % of GMNN control: -3.32

Which result is listed for GRHL2 #1?
G2 robust z-score: -0.458; G2 cells, % of GMNN control: -0.253

What is on record for GRHL2 #2?
G2 robust z-score: -0.661; G2 cells, % of GMNN control: -1.68

What is on record for GRHL2 #3?
G2 robust z-score: 2.12; G2 cells, % of GMNN control: 17.9

With GDAP1L1 #1, what was measured?
G2 robust z-score: -1.06; G2 cells, % of GMNN control: -4.52

For GDAP1L1 #2, how do the results read?
G2 robust z-score: -1.09; G2 cells, % of GMNN control: -4.69

Which result is listed for GDAP1L1 #3?
G2 robust z-score: -0.204; G2 cells, % of GMNN control: 1.53

With AXIN1 #1, how do the results read?
G2 robust z-score: -0.493; G2 cells, % of GMNN control: -0.499

For AXIN1 #2, what does the deposit list?
G2 robust z-score: -0.419; G2 cells, % of GMNN control: 0.0194

With AXIN1 #3, how do the results read?
G2 robust z-score: 1.27; G2 cells, % of GMNN control: 11.9

What is on record for LMF2 #1?
G2 robust z-score: -0.946; G2 cells, % of GMNN control: -3.69

With LMF2 #2, how do the results read?
G2 robust z-score: 0.256; G2 cells, % of GMNN control: 4.77

For LMF2 #3, how do the results read?
G2 robust z-score: 0.733; G2 cells, % of GMNN control: 8.13

In a second layout: 3 of the entries above.
{"target":"GRHL2","reagent":1,"G2 robust z-score":-0.458,"G2 cells, % of GMNN control":-0.253}
{"target":"GRHL2","reagent":2,"G2 robust z-score":-0.661,"G2 cells, % of GMNN control":-1.68}
{"target":"GRHL2","reagent":3,"G2 robust z-score":2.12,"G2 cells, % of GMNN control":17.9}
